Some results were stated once for a whole list of compounds, not compound by compound.
What was measured:
[1] = test system: C2C12 mouse myoblasts; format: cell-based
[2] = test system: PC12 rat adrenal gland pheochromocytoma cells; format: cell-based

## NC1=N[C@H](O)[C@H]2[C@H]3O[C@]4(O)O[C@@H]([C@@H](O)[C@@]2(N1)[C@@H]4O)[C@]3(O)CO [Free TTX, tetrodotoxin]
[1]
  Cell viability by MTS assay: > 95%
[2]
  Cell viability by MTS assay: > 95%

Reference: US20240376176A1 (priority 2021, published 2024)
